{"source": "patent US20240238787A1", "about": "“PLATE ASSAY DEVICE AND METHOD FOR IN SITU IMAGING” (Duke University, priority 2023, published 2024)", "test_system": "P. aeruginosa PA14 biofilm streamers", "assay": "in situ confocal laser scanning microscopy of biofilm and biofilm streamers on ziggurat peg after antibiotic challenge", "format": "cell-based, Pseudomonas aeruginosa PA14", "from_the_text": "The intent of this peg 110 is to optimize for in situ confocal imaging. Two imaging techniques were applied to evaluate this. With respect to FIG. 8B, the surface 128i of the distal-most portion 128i of the peg 110 was captured using a tile and z-stack approach. The biomass formed on the edges of the peg 110 and, in the “no antibiotic” samples, could be thick enough to scatter the fluorescent light emission. FIG. 8B illustrates selected 3D tiles of the surface of the surface 128i of the peg 110 with an area of 8.042 mm2. This is known to leave imaging artifacts resembling “holes” in the images observed in FIG. 8B (e.g., “No antibiotic”). Streamers, are often formed in this area. […] With respect to FIGS. 8A and 8C, the surface biomass on the second end 116 analyzed using COMSTAT 2.1 was plotted using EstimationStats. With respect to FIGS. 8D and 8F, the biomass on the second step 128h of the step analyzed using COMSTAT 2.1 was plotted using EstimationStats. […]\nPegs 110, 150, 160, 170, 180, 190 were imaged in PBS with an inverted Zeiss LSM 900 (Zeiss, Germany) using a 488 nm laser for excitation and detection wavelengths of […] (green) for GFP and 590-700 nm (red) for identifying autofluorescence. […] Biomass quantification of antibiotic plate images was performed using Comstat2 v2.1 as an ImageJ plugin. […]", "note": "At least one compound was matched to its structure with a doubt left.", "data": [{"compound": "CN(C)[C@@H]1C(O)=C(C(N)=O)C(=O)[C@@]2(O)C(O)=C3C(=O)c4c(O)cccc4[C@@](C)(O)[C@H]3C[C@@H]12", "note": "[tetracycline]", "values": [{"measurement": "biomass (COMSTAT 2.1) on second end and step", "setting": "100, 10 μg/mL and no antibiotic, low sample size, FIGS. 8C and 8F", "value": "increased as antibiotic concentration decreased"}, {"measurement": "appearance of biofilm streamers", "setting": "low levels of tetracycline, compared with robust and thick biofilms without antibiotics", "value": "less frequent and thin"}]}]}
